Laboratory results: paper PMC12823906
No constants are given. Whether binding was seen depends on the method and setting. Some binding calls cover weakened binding; strength is not graded here.

Amino acid sequences for entries named in this document (tags omitted).
UniProt Q04542: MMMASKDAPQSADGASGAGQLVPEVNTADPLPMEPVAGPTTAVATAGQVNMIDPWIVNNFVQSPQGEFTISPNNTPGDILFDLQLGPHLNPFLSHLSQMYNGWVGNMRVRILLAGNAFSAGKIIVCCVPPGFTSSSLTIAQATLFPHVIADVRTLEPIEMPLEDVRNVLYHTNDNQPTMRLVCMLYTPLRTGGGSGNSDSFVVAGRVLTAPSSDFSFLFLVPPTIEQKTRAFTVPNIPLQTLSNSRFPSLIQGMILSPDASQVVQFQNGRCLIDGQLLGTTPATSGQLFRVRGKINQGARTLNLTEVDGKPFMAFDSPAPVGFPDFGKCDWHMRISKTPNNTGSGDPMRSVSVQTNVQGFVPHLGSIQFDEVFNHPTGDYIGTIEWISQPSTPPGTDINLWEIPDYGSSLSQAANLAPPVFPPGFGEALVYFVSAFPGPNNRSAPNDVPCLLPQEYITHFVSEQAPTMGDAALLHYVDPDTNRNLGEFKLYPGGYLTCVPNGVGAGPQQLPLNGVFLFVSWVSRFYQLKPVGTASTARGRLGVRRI

Assays:
[1] = molecular target: Norovirus GI.2 major capsid protein VP1 (Norovirus GI.2) (UniProt Q04542); assay: dynamic light scattering; purified VP1 after anion exchange; ELSZ-2000ZS, room temperature; self-assembly into particles; both purified
[2] = molecular target: Norovirus GI.2 major capsid protein VP1 (Norovirus GI.2) (UniProt Q04542); assay: negative-stain transmission electron microscopy; purified VP1 on carbon-coated copper grids, 2% uranyl acetate, Tecnai 20; self-assembly into particles; both purified
[3] = molecular target: Norovirus GI.2 major capsid protein VP1 (Norovirus GI.2) (UniProt Q04542); assay: SEC; Superose 6 Increase 10/300 GL, 50 mM sodium phosphate, 500 mM NaCl, pH 7.0, room temperature; self-assembly into particles; both purified

Measured: binding

Norovirus GI.2 major capsid protein VP1 (from UniProt Q04542 1-546)
binds: all assays above
